Source: the supplement of paper PMC12823440, “Inhibitors supercharge kinase turnover through native proteolytic circuits” (Nature, 2025)
Some of the results follow. The calls rarely recur for the same compound in another form.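 Kinases, fused to nanoluciferase, were expressed in K562 cells; luminescence was measured every 4 h from 2 to 18 h as percent of control (DMSO = 100%, positive control = 0%). A time point is decreased if signal falls significantly (2 sigma). Hits were called by the authors by a rule that is not shown; the count of time points alone does not decide it.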

Sequences of proteins named here, by UniProt entry; tags and fusion partners are left off. A change or cut given only in a name is not applied to a line headed by its entry.
UniProt P07949, whole entry, looked up: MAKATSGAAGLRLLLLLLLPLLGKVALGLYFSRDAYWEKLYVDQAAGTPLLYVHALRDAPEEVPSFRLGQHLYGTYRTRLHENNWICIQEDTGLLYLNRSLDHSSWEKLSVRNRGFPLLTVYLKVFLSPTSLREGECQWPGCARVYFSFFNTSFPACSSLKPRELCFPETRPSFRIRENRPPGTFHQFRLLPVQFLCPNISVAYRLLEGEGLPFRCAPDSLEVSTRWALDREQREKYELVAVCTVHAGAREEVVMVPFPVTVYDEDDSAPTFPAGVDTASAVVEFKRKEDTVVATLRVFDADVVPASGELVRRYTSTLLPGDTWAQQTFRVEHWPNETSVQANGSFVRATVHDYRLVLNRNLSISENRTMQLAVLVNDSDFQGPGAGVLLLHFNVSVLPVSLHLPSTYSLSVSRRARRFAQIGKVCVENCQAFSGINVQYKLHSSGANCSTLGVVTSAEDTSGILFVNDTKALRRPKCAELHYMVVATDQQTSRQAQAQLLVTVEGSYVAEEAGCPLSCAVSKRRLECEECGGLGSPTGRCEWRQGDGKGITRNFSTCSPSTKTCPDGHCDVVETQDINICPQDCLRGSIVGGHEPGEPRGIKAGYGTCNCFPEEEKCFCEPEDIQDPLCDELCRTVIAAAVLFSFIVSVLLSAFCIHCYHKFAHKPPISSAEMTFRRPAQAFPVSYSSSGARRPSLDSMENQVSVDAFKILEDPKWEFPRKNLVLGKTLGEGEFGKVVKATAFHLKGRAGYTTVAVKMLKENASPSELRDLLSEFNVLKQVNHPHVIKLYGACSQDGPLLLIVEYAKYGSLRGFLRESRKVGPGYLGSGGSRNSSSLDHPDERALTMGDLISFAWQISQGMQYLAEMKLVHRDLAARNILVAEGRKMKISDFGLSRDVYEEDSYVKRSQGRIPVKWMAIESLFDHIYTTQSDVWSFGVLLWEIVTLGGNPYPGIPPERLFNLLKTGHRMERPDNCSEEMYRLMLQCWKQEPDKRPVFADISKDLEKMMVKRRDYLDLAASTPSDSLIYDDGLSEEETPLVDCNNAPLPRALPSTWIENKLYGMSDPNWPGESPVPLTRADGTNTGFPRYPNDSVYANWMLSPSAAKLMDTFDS
UniProt P07949, whole entry M918T, looked up: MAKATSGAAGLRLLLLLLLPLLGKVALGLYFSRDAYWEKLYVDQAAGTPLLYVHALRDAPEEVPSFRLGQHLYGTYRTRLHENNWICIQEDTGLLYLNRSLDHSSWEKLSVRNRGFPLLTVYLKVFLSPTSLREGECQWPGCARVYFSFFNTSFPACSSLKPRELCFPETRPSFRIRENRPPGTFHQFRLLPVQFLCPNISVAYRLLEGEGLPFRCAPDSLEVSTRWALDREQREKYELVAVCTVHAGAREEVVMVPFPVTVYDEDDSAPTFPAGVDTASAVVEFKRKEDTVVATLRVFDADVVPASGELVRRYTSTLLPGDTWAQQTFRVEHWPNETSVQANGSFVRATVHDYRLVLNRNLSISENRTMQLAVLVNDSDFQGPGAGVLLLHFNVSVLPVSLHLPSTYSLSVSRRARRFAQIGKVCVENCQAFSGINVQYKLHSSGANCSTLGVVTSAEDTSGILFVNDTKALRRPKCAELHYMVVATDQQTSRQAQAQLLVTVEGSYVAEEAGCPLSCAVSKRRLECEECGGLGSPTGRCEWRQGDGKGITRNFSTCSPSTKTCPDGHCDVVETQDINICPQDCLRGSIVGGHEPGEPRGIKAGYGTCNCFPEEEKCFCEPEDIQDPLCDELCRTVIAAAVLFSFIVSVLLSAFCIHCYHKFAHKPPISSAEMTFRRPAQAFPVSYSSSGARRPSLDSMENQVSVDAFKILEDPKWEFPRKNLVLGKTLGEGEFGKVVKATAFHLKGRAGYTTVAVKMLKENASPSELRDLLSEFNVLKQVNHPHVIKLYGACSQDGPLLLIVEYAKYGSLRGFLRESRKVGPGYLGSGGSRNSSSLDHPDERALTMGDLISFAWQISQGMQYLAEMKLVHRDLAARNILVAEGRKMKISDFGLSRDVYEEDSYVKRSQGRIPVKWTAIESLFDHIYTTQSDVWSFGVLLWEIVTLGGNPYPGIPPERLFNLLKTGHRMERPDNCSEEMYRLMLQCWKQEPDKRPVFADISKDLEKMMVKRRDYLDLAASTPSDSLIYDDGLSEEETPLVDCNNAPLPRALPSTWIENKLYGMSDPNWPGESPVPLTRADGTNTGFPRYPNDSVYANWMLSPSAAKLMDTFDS
UniProt Q9BRS2: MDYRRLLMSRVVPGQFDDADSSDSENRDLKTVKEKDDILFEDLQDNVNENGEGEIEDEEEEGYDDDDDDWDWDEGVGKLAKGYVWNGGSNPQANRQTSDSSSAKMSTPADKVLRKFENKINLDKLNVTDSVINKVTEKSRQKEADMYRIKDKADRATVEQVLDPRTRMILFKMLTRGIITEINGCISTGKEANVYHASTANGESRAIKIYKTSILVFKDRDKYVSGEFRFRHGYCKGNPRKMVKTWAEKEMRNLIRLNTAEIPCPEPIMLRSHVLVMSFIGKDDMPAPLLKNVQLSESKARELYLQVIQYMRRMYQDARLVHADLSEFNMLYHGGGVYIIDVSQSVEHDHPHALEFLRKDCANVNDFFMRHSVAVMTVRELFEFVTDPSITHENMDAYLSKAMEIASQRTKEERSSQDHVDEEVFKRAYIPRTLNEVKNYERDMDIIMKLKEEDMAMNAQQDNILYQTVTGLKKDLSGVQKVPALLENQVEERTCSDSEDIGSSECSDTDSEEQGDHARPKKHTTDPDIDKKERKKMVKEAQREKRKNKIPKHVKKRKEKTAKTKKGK
UniProt Q15418, whole entry: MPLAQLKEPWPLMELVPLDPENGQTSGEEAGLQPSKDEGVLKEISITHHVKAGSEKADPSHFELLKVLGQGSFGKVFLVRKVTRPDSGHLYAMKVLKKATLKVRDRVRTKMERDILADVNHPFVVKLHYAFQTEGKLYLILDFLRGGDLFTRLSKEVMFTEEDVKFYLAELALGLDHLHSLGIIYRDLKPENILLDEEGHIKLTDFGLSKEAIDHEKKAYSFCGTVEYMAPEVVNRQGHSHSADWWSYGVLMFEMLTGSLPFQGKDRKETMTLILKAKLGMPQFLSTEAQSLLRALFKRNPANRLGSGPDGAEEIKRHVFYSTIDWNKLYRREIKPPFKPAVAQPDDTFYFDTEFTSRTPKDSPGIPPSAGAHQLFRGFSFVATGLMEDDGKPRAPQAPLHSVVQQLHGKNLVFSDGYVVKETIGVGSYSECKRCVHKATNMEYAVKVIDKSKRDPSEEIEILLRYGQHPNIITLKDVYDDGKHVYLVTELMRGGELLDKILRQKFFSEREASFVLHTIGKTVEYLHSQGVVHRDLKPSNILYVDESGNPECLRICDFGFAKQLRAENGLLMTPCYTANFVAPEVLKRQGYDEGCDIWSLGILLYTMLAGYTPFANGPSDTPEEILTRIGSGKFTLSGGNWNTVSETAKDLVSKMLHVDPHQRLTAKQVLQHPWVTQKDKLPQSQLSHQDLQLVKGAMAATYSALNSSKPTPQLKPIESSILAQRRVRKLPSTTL
UniProt Q9NYA1, whole entry: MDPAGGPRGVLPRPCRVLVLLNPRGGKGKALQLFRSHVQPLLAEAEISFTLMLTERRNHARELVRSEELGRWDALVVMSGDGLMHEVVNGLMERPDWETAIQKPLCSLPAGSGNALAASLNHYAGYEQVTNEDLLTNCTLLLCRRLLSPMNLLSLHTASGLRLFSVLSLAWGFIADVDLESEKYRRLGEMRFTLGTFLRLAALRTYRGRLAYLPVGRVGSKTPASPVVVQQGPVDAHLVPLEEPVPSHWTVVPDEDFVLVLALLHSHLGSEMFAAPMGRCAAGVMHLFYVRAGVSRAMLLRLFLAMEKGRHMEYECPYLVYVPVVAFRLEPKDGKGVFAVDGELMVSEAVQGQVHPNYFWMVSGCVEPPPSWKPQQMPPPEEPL
UniProt Q9Y6E0: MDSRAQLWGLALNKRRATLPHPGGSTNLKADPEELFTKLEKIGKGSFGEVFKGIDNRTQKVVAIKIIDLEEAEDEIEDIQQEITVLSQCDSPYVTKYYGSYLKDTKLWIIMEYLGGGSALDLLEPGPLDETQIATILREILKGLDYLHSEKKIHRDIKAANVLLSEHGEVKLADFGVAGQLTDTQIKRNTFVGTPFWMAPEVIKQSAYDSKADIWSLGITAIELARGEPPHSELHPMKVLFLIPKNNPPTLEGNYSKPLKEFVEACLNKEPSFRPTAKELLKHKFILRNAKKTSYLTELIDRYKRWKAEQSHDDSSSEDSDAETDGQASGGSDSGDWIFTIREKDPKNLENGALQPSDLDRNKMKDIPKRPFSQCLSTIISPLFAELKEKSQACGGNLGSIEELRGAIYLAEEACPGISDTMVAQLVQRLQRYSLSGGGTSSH
UniProt Q15208: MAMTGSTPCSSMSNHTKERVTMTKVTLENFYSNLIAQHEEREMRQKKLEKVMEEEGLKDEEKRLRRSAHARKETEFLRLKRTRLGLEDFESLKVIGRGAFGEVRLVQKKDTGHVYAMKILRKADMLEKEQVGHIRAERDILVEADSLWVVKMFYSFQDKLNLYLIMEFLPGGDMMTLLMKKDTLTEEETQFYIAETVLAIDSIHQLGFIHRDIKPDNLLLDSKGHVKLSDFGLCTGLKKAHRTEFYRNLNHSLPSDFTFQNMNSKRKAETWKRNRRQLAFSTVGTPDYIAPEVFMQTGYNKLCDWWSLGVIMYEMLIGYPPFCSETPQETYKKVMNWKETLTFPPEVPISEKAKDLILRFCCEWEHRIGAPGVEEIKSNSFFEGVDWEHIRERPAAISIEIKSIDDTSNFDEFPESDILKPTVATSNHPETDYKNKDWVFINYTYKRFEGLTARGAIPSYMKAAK
UniProt P29597: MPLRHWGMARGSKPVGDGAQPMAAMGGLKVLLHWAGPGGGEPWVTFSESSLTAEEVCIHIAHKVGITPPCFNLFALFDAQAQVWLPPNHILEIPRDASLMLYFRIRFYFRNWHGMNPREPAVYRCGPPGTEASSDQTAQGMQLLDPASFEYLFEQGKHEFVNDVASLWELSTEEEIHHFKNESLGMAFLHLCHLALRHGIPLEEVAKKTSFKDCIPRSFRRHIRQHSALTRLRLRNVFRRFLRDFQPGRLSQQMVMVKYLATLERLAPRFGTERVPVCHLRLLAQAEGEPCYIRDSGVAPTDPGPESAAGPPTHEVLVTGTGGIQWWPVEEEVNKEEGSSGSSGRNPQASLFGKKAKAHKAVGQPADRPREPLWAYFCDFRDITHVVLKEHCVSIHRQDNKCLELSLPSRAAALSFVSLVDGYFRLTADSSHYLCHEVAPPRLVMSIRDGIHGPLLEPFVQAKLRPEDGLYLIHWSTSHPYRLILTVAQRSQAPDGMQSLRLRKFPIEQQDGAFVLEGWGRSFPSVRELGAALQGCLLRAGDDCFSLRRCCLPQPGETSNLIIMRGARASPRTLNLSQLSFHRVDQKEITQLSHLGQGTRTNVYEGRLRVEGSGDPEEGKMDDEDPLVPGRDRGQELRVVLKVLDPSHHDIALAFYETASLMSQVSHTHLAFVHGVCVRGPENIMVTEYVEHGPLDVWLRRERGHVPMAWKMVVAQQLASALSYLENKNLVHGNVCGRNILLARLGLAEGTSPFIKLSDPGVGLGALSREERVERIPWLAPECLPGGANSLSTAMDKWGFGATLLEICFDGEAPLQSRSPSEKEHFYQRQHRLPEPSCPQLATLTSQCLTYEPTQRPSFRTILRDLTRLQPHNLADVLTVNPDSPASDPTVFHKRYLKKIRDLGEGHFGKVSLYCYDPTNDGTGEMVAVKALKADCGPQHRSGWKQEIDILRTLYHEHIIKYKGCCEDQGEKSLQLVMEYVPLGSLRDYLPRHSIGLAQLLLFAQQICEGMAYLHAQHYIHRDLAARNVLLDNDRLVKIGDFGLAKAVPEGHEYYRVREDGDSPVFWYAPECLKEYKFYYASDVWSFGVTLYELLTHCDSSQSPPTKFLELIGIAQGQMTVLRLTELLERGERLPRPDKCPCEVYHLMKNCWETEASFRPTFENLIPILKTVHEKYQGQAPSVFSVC
UniProt P07947, whole entry, looked up: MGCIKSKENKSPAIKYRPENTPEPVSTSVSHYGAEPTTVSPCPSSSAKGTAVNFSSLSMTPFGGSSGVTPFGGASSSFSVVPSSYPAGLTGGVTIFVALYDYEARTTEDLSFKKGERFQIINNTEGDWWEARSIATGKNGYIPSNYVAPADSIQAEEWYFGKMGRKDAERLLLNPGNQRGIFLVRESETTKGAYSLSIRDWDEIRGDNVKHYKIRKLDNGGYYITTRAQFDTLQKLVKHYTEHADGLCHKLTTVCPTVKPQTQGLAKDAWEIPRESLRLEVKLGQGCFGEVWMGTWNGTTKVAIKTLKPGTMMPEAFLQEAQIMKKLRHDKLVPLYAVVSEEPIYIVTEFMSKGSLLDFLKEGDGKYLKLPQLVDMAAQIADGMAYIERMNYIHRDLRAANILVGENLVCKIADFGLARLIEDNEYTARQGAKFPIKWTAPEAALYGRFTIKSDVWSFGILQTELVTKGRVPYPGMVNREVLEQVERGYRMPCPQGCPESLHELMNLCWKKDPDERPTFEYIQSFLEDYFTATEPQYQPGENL

What was measured:
Settings in all cases: K562; 2-18 h
[1] = biological target: RET (UniProt P07949); assay: kinase-Nluc reporter destabilization hit call (1 = scored as downregulated) (binary); higher = compound decreases kinase abundance
[2] = biological target: RET_M918T (clone: RET_mut) (UniProt P07949); assay: as above
[3] = biological target: RIOK1 (UniProt Q9BRS2); assay: as above
[4] = biological target: RIPK1 (UniProt Q13546); assay: as above
[5] = biological target: RIPK2 (UniProt O43353); assay: as above
[6] = biological target: ROR2 (UniProt Q01974); assay: as above
[7] = biological target: RPS6KA1 (UniProt Q15418); assay: as above
[8] = biological target: SPHK1 (UniProt Q9NYA1); assay: as above
[9] = biological target: SRC (UniProt P12931); assay: as above
[10] = biological target: STK24 (UniProt Q9Y6E0); assay: as above
[11] = biological target: STK38 (UniProt Q15208); assay: as above
[12] = biological target: SYK (UniProt P43405); assay: as above
[13] = biological target: TEC (UniProt P42680); assay: as above
[14] = biological target: TYK2 (UniProt P29597); assay: as above
[15] = biological target: ULK3 (UniProt Q6PHR2); assay: as above
[16] = biological target: YES1 (UniProt P07947); assay: as above
[17] = biological target: ZAK (UniProt Q9NYL2); assay: as above
[18] = biological target: ZAP70 (UniProt P43403); assay: as above
[19] = biological target: ABL1 (UniProt P00519); assay: number of time points (of 5) at which kinase-Nluc abundance scored as decreased, DMSO-normalised (count); higher = more persistent destabilization
[20] = biological target: AKT1 (UniProt P31749); assay: as above

Row | Compound | kinase-Nluc reporter destabilization hit call [1] | kinase-Nluc reporter destabilization hit call [2] | kinase-Nluc reporter destabilization hit call [3] | kinase-Nluc reporter destabilization hit call [4] | kinase-Nluc reporter destabilization hit call [5] | kinase-Nluc reporter destabilization hit call [6] | kinase-Nluc reporter destabilization hit call [7] | kinase-Nluc reporter destabilization hit call [8] | kinase-Nluc reporter destabilization hit call [9] | kinase-Nluc reporter destabilization hit call [10] | kinase-Nluc reporter destabilization hit call [11] | kinase-Nluc reporter destabilization hit call [12] | kinase-Nluc reporter destabilization hit call [13] | kinase-Nluc reporter destabilization hit call [14] | kinase-Nluc reporter destabilization hit call [15] | kinase-Nluc reporter destabilization hit call [16] | kinase-Nluc reporter destabilization hit call [17] | kinase-Nluc reporter destabilization hit call [18] | number of time points [19] | number of time points [20]
1 | c1cc2c(cc1O[C@H]1OC[C@H]3[C@@H]1CO[C@@H]3c1ccc3c(c1)OCO3)OCO2 [Sesamolin] (10 µM) | inactive: 0 | inactive: 0 | inactive: 0 | inactive: 0 | inactive: 0 | inactive: 0 | inactive: 0 | inactive: 0 | inactive: 0 | inactive: 0 | inactive: 0 | inactive: 0 | inactive: 0 | inactive: 0 | inactive: 0 | inactive: 0 | inactive: 0 | inactive: 0 | 0 | 0
2 | N#Cc1cccc(-c2c[nH]c3ncnc(N4CCOCC4)c23)c1 (10 µM) | inactive: 0 | inactive: 0 | inactive: 0 | inactive: 0 | inactive: 0 | inactive: 0 | inactive: 0 | inactive: 0 | inactive: 0 | inactive: 0 | inactive: 0 | inactive: 0 | inactive: 0 | inactive: 0 | inactive: 0 | inactive: 0 | inactive: 0 | inactive: 0 | 0 | 0
3 | CNc1nc(Nc2cnn(C3CCN(C4COC4)CC3F)c2Cl)ncc1C(F)(F)F (stereo not given) (10 µM) | inactive: 0 | inactive: 0 | inactive: 0 | inactive: 0 | inactive: 0 | inactive: 0 | inactive: 0 | inactive: 0 | inactive: 0 | inactive: 0 | inactive: 0 | inactive: 0 | inactive: 0 | inactive: 0 | inactive: 0 | inactive: 0 | inactive: 0 | inactive: 0 | 0 | 0
4 | C#CCN(C)C(=O)CCNc1nc(N2CCN(C(=O)C=C)CC2)c2cc(Cl)c(-c3c(O)cccc3F)c(F)c2n1 [ARS-1323-alkyne] (2.5 µM) | inactive: 0 | inactive: 0 | inactive: 0 | inactive: 0 | inactive: 0 | inactive: 0 | inactive: 0 | inactive: 0 | inactive: 0 | inactive: 0 | inactive: 0 | inactive: 0 | inactive: 0 | inactive: 0 | inactive: 0 | inactive: 0 | inactive: 0 | inactive: 0 | 0 | 0
5 | Fc1ccc(-c2nc(-c3c(F)cccc3F)[nH]c2-c2ccncc2)cc1 (10 µM) | inactive: 0 | inactive: 0 | inactive: 0 | inactive: 0 | inactive: 0 | inactive: 0 | inactive: 0 | inactive: 0 | inactive: 0 | inactive: 0 | inactive: 0 | inactive: 0 | inactive: 0 | inactive: 0 | inactive: 0 | inactive: 0 | inactive: 0 | inactive: 0 | 0 | 0
6 | CN1CCN(c2ccc(Nc3ncc4nc(Nc5ccccc5)n([C@@H]5CCN(S(=O)(=O)C6CC6)C5)c4n3)cc2)CC1 (2.5 µM) | inactive: 0 | inactive: 0 | inactive: 0 | inactive: 0 | inactive: 0 | inactive: 0 | inactive: 0 | inactive: 0 | inactive: 0 | inactive: 0 | inactive: 0 | inactive: 0 | inactive: 0 | inactive: 0 | inactive: 0 | inactive: 0 | inactive: 0 | inactive: 0 | 3 | 0
7 | COc1ccc([C@@H]2CC(=O)c3c(O)cc(O)cc3O2)cc1O [Hesperetin] (10 µM) | inactive: 0 | inactive: 0 | inactive: 0 | inactive: 0 | inactive: 0 | inactive: 0 | inactive: 0 | inactive: 0 | inactive: 0 | inactive: 0 | inactive: 0 | inactive: 0 | inactive: 0 | inactive: 0 | inactive: 0 | inactive: 0 | inactive: 0 | inactive: 0 | 0 | 0
8 | CC(C)NC(=O)N1CC[C@H](NC2=Nc3cc(F)ccc3N(CC(F)F)c3ccc(Cl)cc32)C1 (10 µM) | inactive: 0 | inactive: 0 | inactive: 0 | inactive: 0 | inactive: 0 | inactive: 0 | inactive: 0 | inactive: 0 | inactive: 0 | inactive: 0 | inactive: 0 | inactive: 0 | inactive: 0 | inactive: 0 | inactive: 0 | inactive: 0 | inactive: 0 | inactive: 0 | 0 | 0
9 | CC(C)=CC(=O)CCC(=O)N1CCN(Cc2cc3nc(-c4cccc5[nH]ncc45)nc(N4CCOCC4)c3s2)CC1 (10 µM) | inactive: 0 | inactive: 0 | inactive: 0 | inactive: 0 | inactive: 0 | inactive: 0 | inactive: 0 | active: 1 | inactive: 0 | inactive: 0 | inactive: 0 | inactive: 0 | inactive: 0 | inactive: 0 | inactive: 0 | inactive: 0 | inactive: 0 | inactive: 0 | 0 | 0
10 | Cc1c(NC(=O)OC[C@@H]2COCCN2)cn2ncnc(Nc3ccc4c(cnn4Cc4cccc(F)c4)c3)c12 (10 µM) | inactive: 0 | inactive: 0 | inactive: 0 | inactive: 0 | inactive: 0 | inactive: 0 | inactive: 0 | inactive: 0 | inactive: 0 | inactive: 0 | inactive: 0 | inactive: 0 | inactive: 0 | inactive: 0 | inactive: 0 | inactive: 0 | inactive: 0 | inactive: 0 | 0 | 0
11 | Cn1cc(-c2ccc(CNc3cc(-c4cnc5cc(OCCCN6CCCC6)ccn45)ncn3)cc2)cn1 (10 µM) | inactive: 0 | inactive: 0 | inactive: 0 | inactive: 0 | inactive: 0 | inactive: 0 | inactive: 0 | inactive: 0 | inactive: 0 | inactive: 0 | inactive: 0 | inactive: 0 | inactive: 0 | inactive: 0 | inactive: 0 | inactive: 0 | inactive: 0 | inactive: 0 | 0 | 0
12 | O=C(NCCCNC(=O)Nc1cccc(C2=NCCN2)c1)Nc1cccc(C2=NCCN2)c1 [p32 Inhibitor M36] (10 µM) | inactive: 0 | inactive: 0 | inactive: 0 | inactive: 0 | inactive: 0 | inactive: 0 | inactive: 0 | inactive: 0 | inactive: 0 | inactive: 0 | inactive: 0 | inactive: 0 | inactive: 0 | inactive: 0 | inactive: 0 | inactive: 0 | inactive: 0 | inactive: 0 | 0 | 0
13 | COc1cc(N2CCC(N3CCN(C)CC3)CC2)ccc1Nc1ncc(Cl)c(Nc2ccccc2P(C)(C)=O)n1 [Brigatinib] (2 µM) | inactive: 0 | inactive: 0 | inactive: 0 | inactive: 0 | inactive: 0 | inactive: 0 | inactive: 0 | inactive: 0 | inactive: 0 | inactive: 0 | inactive: 0 | inactive: 0 | inactive: 0 | inactive: 0 | inactive: 0 | inactive: 0 | inactive: 0 | inactive: 0 | 1 | 0
14 | C[C@@H]1O[C@@H](O[C@H]2[C@H](Oc3cc(O)c4c(=O)cc(-c5ccc(O)cc5)oc4c3)O[C@H](CO)[C@@H](O)[C@@H]2O)[C@H](O)[C@H](O)[C@H]1O [Rhoifolin] (10 µM) | inactive: 0 | inactive: 0 | inactive: 0 | inactive: 0 | inactive: 0 | inactive: 0 | inactive: 0 | inactive: 0 | inactive: 0 | inactive: 0 | inactive: 0 | inactive: 0 | inactive: 0 | inactive: 0 | inactive: 0 | inactive: 0 | inactive: 0 | inactive: 0 | 0 | 0
15 | O=C(O)c1cc(O)ccc1O [2,5-Dihydroxybenzoic acid] (10 µM) | inactive: 0 | inactive: 0 | inactive: 0 | inactive: 0 | inactive: 0 | inactive: 0 | inactive: 0 | inactive: 0 | inactive: 0 | inactive: 0 | inactive: 0 | inactive: 0 | inactive: 0 | inactive: 0 | inactive: 0 | inactive: 0 | inactive: 0 | inactive: 0 | 0 | 0
16 | CC1=C2C(=O)O[C@@H](c3ccoc3)[C@]2(C)CCC1 [Fraxinellone] (10 µM) | inactive: 0 | inactive: 0 | inactive: 0 | inactive: 0 | inactive: 0 | inactive: 0 | inactive: 0 | inactive: 0 | inactive: 0 | inactive: 0 | inactive: 0 | inactive: 0 | inactive: 0 | inactive: 0 | inactive: 0 | inactive: 0 | inactive: 0 | inactive: 0 | 0 | 0
17 | CCN1CCN(Cc2ccc(Nc3ncc(F)c(-c4cc(F)c5nc(CO)n(C(C)C)c5c4)n3)nc2)CC1 [Abemaciclib metabolite M20] (2 µM) | inactive: 0 | inactive: 0 | inactive: 0 | inactive: 0 | inactive: 0 | inactive: 0 | inactive: 0 | inactive: 0 | inactive: 0 | inactive: 0 | inactive: 0 | inactive: 0 | inactive: 0 | inactive: 0 | inactive: 0 | inactive: 0 | inactive: 0 | inactive: 0 | 0 | 0

Some of the entries so far, comma-delimited.
Row,Compound,kinase-Nluc reporter destabilization hit call [1],kinase-Nluc reporter destabilization hit call [2],kinase-Nluc reporter destabilization hit call [3],kinase-Nluc reporter destabilization hit call [4],kinase-Nluc reporter destabilization hit call [5],kinase-Nluc reporter destabilization hit call [6],kinase-Nluc reporter destabilization hit call [7],kinase-Nluc reporter destabilization hit call [8],kinase-Nluc reporter destabilization hit call [9],kinase-Nluc reporter destabilization hit call [10],kinase-Nluc reporter destabilization hit call [11],kinase-Nluc reporter destabilization hit call [12],kinase-Nluc reporter destabilization hit call [13],kinase-Nluc reporter destabilization hit call [14],kinase-Nluc reporter destabilization hit call [15],kinase-Nluc reporter destabilization hit call [16],kinase-Nluc reporter destabilization hit call [17],kinase-Nluc reporter destabilization hit call [18],number of time points [19],number of time points [20]
3,CNc1nc(Nc2cnn(C3CCN(C4COC4)CC3F)c2Cl)ncc1C(F)(F)F (stereo not given) (10 µM),inactive: 0,inactive: 0,inactive: 0,inactive: 0,inactive: 0,inactive: 0,inactive: 0,inactive: 0,inactive: 0,inactive: 0,inactive: 0,inactive: 0,inactive: 0,inactive: 0,inactive: 0,inactive: 0,inactive: 0,inactive: 0,0,0
4,C#CCN(C)C(=O)CCNc1nc(N2CCN(C(=O)C=C)CC2)c2cc(Cl)c(-c3c(O)cccc3F)c(F)c2n1 [ARS-1323-alkyne] (2.5 µM),inactive: 0,inactive: 0,inactive: 0,inactive: 0,inactive: 0,inactive: 0,inactive: 0,inactive: 0,inactive: 0,inactive: 0,inactive: 0,inactive: 0,inactive: 0,inactive: 0,inactive: 0,inactive: 0,inactive: 0,inactive: 0,0,0
